Data reported in the supplement of paper PMC12067093, “Discovery and optimisation of a covalent ligand for TRIM25 and its application to targeted protein ubiquitination” (Chemical Science, 2025).
Some of the results follow.

By UniProt entry, the sequences of proteins in these tests, tags left out. Where a name states a change or a piece, a line headed by the entry shows the natural chain unless it says otherwise.
UniProt Q96H79: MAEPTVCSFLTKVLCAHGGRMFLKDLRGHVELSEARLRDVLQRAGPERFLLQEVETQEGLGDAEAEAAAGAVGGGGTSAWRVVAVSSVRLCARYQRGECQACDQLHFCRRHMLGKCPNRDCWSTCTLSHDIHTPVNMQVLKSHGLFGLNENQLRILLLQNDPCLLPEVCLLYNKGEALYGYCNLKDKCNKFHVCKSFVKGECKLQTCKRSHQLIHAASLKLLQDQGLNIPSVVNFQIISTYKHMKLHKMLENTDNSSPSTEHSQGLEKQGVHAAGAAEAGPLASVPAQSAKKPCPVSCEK
UniProt P13010: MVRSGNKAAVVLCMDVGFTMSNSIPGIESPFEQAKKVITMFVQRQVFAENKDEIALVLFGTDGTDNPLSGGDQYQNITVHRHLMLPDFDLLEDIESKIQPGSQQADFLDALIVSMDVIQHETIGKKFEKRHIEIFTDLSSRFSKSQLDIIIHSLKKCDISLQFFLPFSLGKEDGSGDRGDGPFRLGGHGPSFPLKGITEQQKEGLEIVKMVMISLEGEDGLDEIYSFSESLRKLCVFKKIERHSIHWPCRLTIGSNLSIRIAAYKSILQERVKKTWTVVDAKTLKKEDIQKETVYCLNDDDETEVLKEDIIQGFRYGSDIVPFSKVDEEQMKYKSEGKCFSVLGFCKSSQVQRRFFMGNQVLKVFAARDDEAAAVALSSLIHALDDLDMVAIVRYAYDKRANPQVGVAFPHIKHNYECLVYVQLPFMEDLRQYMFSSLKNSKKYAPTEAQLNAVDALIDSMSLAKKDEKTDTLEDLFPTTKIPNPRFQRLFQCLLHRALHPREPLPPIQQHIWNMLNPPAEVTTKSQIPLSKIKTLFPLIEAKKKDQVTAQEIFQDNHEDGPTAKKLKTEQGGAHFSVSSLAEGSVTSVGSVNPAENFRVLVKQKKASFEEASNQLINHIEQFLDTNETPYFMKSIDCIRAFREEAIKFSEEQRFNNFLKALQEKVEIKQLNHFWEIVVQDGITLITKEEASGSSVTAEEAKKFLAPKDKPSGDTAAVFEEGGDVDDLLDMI
UniProt O43592: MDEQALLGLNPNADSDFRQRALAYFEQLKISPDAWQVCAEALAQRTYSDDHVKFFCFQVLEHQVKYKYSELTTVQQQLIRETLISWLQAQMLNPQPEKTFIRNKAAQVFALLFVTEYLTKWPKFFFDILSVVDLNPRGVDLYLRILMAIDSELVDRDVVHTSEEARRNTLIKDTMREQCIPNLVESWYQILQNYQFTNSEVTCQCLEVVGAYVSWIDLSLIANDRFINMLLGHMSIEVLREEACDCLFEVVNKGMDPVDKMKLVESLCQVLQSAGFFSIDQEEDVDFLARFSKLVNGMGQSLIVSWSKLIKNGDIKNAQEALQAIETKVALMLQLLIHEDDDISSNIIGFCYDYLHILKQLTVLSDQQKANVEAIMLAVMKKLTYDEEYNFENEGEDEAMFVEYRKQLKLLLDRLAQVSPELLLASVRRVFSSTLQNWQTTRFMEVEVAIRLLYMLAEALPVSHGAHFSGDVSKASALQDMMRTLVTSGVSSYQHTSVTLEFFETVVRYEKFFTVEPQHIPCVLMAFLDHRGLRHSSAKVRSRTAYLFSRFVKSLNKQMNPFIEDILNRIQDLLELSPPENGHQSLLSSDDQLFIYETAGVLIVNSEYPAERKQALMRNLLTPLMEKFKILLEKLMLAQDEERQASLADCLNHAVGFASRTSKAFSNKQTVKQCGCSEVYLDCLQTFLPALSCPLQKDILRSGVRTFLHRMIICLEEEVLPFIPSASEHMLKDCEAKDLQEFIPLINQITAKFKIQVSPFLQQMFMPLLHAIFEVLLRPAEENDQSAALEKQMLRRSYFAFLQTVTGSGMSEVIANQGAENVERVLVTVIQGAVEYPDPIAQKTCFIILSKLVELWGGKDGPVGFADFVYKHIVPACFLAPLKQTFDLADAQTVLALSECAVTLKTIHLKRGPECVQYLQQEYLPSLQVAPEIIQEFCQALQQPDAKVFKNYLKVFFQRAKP
UniProt P62258: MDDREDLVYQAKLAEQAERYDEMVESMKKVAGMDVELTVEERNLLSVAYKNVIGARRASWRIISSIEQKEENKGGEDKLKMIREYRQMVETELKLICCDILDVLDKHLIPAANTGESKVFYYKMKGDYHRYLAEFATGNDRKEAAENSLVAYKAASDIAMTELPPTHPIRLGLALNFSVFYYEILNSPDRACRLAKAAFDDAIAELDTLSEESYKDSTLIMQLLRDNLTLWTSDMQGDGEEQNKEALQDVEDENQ
UniProt Q9NUD5: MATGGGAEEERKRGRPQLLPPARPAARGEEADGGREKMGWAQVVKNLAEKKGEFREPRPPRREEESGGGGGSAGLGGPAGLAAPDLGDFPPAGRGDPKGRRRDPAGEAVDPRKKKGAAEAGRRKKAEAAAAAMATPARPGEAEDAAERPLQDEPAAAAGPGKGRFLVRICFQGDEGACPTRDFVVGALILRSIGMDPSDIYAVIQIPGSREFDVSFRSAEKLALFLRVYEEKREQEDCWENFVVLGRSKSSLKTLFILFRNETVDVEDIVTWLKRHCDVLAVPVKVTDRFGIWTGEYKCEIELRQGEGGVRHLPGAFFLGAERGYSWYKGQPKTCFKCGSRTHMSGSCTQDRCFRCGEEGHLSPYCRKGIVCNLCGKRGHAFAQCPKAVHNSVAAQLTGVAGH
UniProt Q9UIA9: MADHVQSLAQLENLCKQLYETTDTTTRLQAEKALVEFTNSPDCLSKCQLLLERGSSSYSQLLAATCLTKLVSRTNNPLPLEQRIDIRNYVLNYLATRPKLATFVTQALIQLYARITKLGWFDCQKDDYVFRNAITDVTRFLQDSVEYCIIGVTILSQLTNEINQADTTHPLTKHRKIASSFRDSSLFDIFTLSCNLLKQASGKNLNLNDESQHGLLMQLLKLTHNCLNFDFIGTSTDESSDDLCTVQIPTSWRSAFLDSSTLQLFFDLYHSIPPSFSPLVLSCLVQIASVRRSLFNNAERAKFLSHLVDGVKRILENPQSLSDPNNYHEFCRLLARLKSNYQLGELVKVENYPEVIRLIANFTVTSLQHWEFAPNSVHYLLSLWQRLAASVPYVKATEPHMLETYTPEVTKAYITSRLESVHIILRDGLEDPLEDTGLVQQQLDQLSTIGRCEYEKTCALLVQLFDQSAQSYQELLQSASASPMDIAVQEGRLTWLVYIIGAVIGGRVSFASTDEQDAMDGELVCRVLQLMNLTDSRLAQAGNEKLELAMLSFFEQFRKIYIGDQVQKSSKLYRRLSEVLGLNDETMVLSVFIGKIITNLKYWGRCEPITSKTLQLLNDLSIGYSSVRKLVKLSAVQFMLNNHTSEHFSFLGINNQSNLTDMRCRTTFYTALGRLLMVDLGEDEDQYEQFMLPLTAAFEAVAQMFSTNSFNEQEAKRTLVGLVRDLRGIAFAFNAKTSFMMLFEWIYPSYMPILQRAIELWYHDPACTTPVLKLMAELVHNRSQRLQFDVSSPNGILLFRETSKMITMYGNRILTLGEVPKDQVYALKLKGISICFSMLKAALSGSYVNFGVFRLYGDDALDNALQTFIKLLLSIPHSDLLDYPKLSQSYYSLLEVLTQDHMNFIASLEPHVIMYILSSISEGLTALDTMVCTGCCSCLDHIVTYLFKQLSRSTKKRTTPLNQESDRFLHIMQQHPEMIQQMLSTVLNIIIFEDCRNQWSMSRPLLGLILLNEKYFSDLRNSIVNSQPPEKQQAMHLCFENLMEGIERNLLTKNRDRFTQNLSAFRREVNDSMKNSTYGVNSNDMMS
UniProt Q7Z2W4: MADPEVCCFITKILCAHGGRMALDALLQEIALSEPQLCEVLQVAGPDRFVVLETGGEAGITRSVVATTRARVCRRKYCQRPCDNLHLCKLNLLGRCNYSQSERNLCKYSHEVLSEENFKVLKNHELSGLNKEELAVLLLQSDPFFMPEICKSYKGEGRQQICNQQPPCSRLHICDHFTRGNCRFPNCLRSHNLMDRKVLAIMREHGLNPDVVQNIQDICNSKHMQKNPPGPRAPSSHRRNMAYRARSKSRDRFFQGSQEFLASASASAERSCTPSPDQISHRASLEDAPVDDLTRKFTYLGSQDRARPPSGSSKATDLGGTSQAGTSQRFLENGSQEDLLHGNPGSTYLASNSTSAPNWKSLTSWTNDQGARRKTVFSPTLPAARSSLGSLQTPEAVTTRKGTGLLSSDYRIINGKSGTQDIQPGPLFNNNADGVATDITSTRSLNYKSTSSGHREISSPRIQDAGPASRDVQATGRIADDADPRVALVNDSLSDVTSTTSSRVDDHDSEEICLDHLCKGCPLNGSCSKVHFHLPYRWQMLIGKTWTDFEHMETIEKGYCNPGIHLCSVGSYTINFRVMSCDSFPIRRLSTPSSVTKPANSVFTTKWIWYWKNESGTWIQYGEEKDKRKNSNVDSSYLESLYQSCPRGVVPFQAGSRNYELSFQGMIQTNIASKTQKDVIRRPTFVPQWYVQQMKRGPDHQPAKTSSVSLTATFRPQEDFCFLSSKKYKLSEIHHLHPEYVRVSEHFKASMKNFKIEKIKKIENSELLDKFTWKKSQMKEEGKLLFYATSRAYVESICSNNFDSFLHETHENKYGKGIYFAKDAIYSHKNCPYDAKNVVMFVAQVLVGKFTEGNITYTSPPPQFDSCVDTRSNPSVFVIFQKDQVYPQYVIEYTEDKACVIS
UniProt Q9Y2Z4: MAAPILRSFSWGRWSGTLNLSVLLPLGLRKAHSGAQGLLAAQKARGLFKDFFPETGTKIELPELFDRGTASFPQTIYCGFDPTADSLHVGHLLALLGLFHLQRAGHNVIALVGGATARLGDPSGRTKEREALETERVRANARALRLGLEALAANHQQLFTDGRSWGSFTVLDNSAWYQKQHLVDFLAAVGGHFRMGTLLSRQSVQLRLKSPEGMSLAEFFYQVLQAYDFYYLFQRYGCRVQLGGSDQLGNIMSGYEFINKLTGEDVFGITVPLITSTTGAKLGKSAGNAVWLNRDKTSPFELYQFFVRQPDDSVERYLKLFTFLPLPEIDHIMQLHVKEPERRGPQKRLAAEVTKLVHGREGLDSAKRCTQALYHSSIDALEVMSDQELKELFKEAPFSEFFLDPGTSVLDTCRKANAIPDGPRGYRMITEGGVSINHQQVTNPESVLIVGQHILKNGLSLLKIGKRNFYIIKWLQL
UniProt Q9HAV4: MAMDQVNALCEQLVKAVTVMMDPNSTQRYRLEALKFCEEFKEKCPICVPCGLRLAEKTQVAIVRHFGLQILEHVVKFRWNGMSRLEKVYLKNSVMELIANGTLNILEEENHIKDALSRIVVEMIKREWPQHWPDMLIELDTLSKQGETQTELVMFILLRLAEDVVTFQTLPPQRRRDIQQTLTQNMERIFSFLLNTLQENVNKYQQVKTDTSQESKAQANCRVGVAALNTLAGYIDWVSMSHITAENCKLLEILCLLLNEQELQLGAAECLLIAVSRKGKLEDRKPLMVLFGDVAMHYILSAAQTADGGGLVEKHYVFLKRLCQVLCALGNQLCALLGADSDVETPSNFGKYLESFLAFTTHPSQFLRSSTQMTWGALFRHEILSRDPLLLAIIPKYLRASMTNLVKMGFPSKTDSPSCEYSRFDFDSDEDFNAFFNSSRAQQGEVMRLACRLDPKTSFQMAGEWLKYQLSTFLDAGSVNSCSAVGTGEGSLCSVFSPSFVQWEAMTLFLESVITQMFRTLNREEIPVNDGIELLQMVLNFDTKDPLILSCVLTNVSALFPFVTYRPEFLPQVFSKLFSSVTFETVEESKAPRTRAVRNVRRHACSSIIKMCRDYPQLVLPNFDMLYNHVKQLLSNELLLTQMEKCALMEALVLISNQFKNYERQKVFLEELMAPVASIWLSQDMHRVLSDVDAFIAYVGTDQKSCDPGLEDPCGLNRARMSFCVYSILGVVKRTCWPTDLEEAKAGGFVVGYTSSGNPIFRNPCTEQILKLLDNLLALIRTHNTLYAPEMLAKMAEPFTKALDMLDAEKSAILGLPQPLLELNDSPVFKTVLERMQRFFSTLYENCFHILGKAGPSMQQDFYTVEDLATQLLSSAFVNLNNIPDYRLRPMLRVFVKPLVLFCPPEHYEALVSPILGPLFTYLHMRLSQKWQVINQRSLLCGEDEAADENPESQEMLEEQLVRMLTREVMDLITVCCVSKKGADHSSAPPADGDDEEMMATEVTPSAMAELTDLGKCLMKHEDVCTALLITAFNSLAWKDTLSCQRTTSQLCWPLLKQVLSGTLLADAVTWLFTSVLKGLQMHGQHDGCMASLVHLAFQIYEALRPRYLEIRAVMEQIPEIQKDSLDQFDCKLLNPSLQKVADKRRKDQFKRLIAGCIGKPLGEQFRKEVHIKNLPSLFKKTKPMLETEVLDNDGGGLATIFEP

Compound: CC1Cc2ccccc2N1C(=O)C1CCCN(C1)C(=O)CCl (mixture of isomers) [TRIM25 ligand 11 (diastereomer mixture)]
Experiment: probe-labelled cysteine peptide fold change vs DMSO (competition) (log2 fold change); higher = less target engagement (more negative = stronger competition)
Conditions: THP-1, incubation time: 4 h
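Also: competitive chemoproteomic profiling in live THP-1 cells with an iodoacetamide desthiobiotin (IA-DTB) probe, comparing probe-labelled peptide intensities in compound-treated cells against DMSO-treated controls.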

Target | probe-labelled cysteine peptide fold change (10 µM) | probe-labelled cysteine peptide fold change (50 µM)
ZC3HAV1L_Q96H79_163_ILLLQNDPCLLPEVCLLYNK (UniProt Q96H79) | -0.172 | 0.0584
XRCC5_P13010_157_KCDISLQFFLPFSLGKEDGSGDRGDGPFR (UniProt P13010) | -0.432 | -0.174
XPOT_O43592_522_FFTVEPQHIPCVLMAFLDHR (UniProt O43592) | 0.161 | -0.0107
YWHAE_P62258_98_LICCDILDVLDK (UniProt P62258) | 0.0119 | 0.103
ZCCHC3_Q9NUD5_356_CGEEGHLSPYCR (UniProt Q9NUD5) | 0.259 | 0.0669
XPOT_O43592_56_FFCFQVLEHQVK (UniProt O43592) | 0.294 | 0.235
YEATS2_Q9ULM3_565_QEDSLFASMPPLCPIGSHPK (UniProt Q9ULM3) | -0.00711 | -0.175
XPO7_Q9UIA9_66_GSSSYSQLLAATCLTK (UniProt Q9UIA9) | 0.0137 | 0.129
ZC3HAV1_Q7Z2W4_567_GYCNPGIHLCSVGSYTINFR (UniProt Q7Z2W4) | 0.189 | 0.076
YARS2_Q9Y2Z4_413_EAPFSEFFLDPGTSVLDTCRK (UniProt Q9Y2Z4) | -0.171 | 0.00272
XPO5_Q9HAV4_1025_HEDVCTALLITAFNSLAWK (UniProt Q9HAV4) | 0.0361 | 0.123
XRCC1_P18887_362_DSTHLICAFANTPK (UniProt P18887) | -0.162 | -0.411
XPNPEP1_Q9NQW7_502_SALWDSGLDYLHGTGHGVGSFLNVHEGPCGISYK (UniProt Q9NQW7) | 0.18 | -0.182

Record cards, as listed above:
YWHAE_P62258_98_LICCDILDVLDK (UniProt P62258) is listed with probe-labelled cysteine peptide fold change (10 µM) = 0.0119; probe-labelled cysteine peptide fold change (50 µM) = 0.103
XPO7_Q9UIA9_66_GSSSYSQLLAATCLTK (UniProt Q9UIA9) is listed with probe-labelled cysteine peptide fold change (10 µM) = 0.0137; probe-labelled cysteine peptide fold change (50 µM) = 0.129
